One assay has as its target T1, TAP-tagged Tma46 (yeast) (UniProt Q12000).
T1 sequence: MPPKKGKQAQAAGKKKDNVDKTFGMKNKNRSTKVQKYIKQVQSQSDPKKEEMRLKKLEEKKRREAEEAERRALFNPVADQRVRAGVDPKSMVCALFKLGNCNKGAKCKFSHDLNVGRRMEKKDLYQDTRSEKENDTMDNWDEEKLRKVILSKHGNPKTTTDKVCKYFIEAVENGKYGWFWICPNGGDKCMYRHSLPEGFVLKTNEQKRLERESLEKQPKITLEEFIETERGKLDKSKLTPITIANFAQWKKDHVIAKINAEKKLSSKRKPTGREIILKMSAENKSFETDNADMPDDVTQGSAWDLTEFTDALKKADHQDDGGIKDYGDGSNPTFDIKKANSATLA
The assay is described as follows: co-IP; extracts of Δrbg1 yeast expressing Tma46–TAP and HA-tagged Rbg1 variants; Tma46–TAP precipitated on IgG beads, 4°C 2 h, 150 mM NaCl; western blot of HA. Background: Immunoblotting shows a protein as a band on a membrane.

Assay [1] deals with T2, 6His-tagged full-length Rbg1 (yeast) (UniProt P39729).
T2 sequence: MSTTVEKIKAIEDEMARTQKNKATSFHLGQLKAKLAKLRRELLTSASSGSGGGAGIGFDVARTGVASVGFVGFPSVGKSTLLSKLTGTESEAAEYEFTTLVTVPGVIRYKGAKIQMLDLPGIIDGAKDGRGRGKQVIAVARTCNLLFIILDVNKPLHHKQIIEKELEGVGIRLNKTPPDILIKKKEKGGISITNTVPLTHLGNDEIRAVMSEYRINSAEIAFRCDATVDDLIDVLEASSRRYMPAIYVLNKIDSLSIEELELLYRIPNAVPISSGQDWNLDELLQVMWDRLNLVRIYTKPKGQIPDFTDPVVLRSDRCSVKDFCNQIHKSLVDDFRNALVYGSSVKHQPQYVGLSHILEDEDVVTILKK
The assay is described as follows: pull-down; N-terminally 6His-tagged Rbg1 (or variant) co-expressed with untagged Tma46 (or fragment) from an artificial operon in E. coli; purified on Ni–NTA; eluates on denaturing gel, Coomassie staining.

The target of another assay is T3, TAP-tagged Rbg1 (yeast) (UniProt P39729).
T3 sequence: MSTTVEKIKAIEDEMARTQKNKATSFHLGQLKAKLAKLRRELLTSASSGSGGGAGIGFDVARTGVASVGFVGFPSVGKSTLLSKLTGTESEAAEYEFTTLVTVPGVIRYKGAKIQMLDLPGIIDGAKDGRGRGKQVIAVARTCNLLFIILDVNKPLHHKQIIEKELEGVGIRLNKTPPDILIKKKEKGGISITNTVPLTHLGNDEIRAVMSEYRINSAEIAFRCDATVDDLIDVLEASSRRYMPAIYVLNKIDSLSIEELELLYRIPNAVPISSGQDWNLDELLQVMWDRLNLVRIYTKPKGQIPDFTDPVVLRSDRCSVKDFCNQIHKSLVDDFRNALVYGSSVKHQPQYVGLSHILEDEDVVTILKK
In words: co-IP; extracts of Δtma46 yeast with TAP-tagged Rbg1 and HA-Tma46 variants on a centromeric plasmid; Rbg1-TAP precipitated on IgG beads, 4°C 2 h, 150 mM NaCl; western blot of HA.

The target in assay [2] is T2, 6His-tagged full-length Rbg1 (yeast). In words: SEC; purified Rbg1fl–Tma46 205–345 complex on a size exclusion column at 4°C in buffer S (150 mM NaCl, 20 mM Tris pH 7.5, 2 mM DTT); both purified. Background: SEC sorts molecules by how far they enter the pores of the column.
The target is the same in assay [3]. In words: crystal structure; Rbg1fl–Tma46 205–345 complex, vapor diffusion at 4°C, SIRAS with selenomethionine derivative, 2.67 Å, two complexes in the asymmetric unit; both purified.

These are yes or no findings as the source states them, for the method shown. For part of these data: In cells and extracts the contact can be indirect. Some results given as binding are weak or reduced against the parent protein; the word gives no strength. Tags and fused reporters may be left off the sequences shown.

B1: HA-tagged Rbg1 (wild type) (enzyme, UniProt P39729 1-369)
chain: MSTTVEKIKAIEDEMARTQKNKATSFHLGQLKAKLAKLRRELLTSASSGSGGGAGIGFDVARTGVASVGFVGFPSVGKSTLLSKLTGTESEAAEYEFTTLVTVPGVIRYKGAKIQMLDLPGIIDGAKDGRGRGKQVIAVARTCNLLFIILDVNKPLHHKQIIEKELEGVGIRLNKTPPDILIKKKEKGGISITNTVPLTHLGNDEIRAVMSEYRINSAEIAFRCDATVDDLIDVLEASSRRYMPAIYVLNKIDSLSIEELELLYRIPNAVPISSGQDWNLDELLQVMWDRLNLVRIYTKPKGQIPDFTDPVVLRSDRCSVKDFCNQIHKSLVDDFRNALVYGSSVKHQPQYVGLSHILEDEDVVTILKK
As for B1, the binding entry with TAP-tagged Tma46 (yeast) is “binds”.

B2: full-length Tma46 (protein, UniProt Q12000 1-345)
chain: MPPKKGKQAQAAGKKKDNVDKTFGMKNKNRSTKVQKYIKQVQSQSDPKKEEMRLKKLEEKKRREAEEAERRALFNPVADQRVRAGVDPKSMVCALFKLGNCNKGAKCKFSHDLNVGRRMEKKDLYQDTRSEKENDTMDNWDEEKLRKVILSKHGNPKTTTDKVCKYFIEAVENGKYGWFWICPNGGDKCMYRHSLPEGFVLKTNEQKRLERESLEKQPKITLEEFIETERGKLDKSKLTPITIANFAQWKKDHVIAKINAEKKLSSKRKPTGREIILKMSAENKSFETDNADMPDDVTQGSAWDLTEFTDALKKADHQDDGGIKDYGDGSNPTFDIKKANSATLA
Turning to B2, the binding entry in assay [1] is listed as “binds”.

B3: HA-tagged Tma46 (wild type) (protein, UniProt Q12000 1-345)
chain: MPPKKGKQAQAAGKKKDNVDKTFGMKNKNRSTKVQKYIKQVQSQSDPKKEEMRLKKLEEKKRREAEEAERRALFNPVADQRVRAGVDPKSMVCALFKLGNCNKGAKCKFSHDLNVGRRMEKKDLYQDTRSEKENDTMDNWDEEKLRKVILSKHGNPKTTTDKVCKYFIEAVENGKYGWFWICPNGGDKCMYRHSLPEGFVLKTNEQKRLERESLEKQPKITLEEFIETERGKLDKSKLTPITIANFAQWKKDHVIAKINAEKKLSSKRKPTGREIILKMSAENKSFETDNADMPDDVTQGSAWDLTEFTDALKKADHQDDGGIKDYGDGSNPTFDIKKANSATLA
Take B3: the binding result with TAP-tagged Rbg1 (yeast) is recorded as “binds”.

B4: Tma46 C-terminal region (amino acids 205–345) (domain or fragment, UniProt Q12000 205-345)
chain: EQKRLERESLEKQPKITLEEFIETERGKLDKSKLTPITIANFAQWKKDHVIAKINAEKKLSSKRKPTGREIILKMSAENKSFETDNADMPDDVTQGSAWDLTEFTDALKKADHQDDGGIKDYGDGSNPTFDIKKANSATLA
Turning to B4, the binding entry in assay [2] and in assay [3] was “binds” each time.

B5: Tma46_(239–345) (Tma46Δα1) (domain or fragment, UniProt Q12000 239-345)
chain: TPITIANFAQWKKDHVIAKINAEKKLSSKRKPTGREIILKMSAENKSFETDNADMPDDVTQGSAWDLTEFTDALKKADHQDDGGIKDYGDGSNPTFDIKKANSATLA
For B5, the binding result in assay [1] is “binds”.

Values taken from publication PMC3510508, “Rbg1–Tma46 dimer structure reveals new functional domains and their role in polysome recruitment” (Nucleic Acids Research, 2012).
